PubChem BioAssay AID1053208 – Peter MacCallum Cancer Centre – 2014
Test: 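Synthetic lethal interactions between gene loss and doxorubicin in osteosarcoma cells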 (primary screen). System: mouse osteosarcoma cells, early-passage culture from an engineered mouse model of fibroblastic bone tumour. Reagents: siRNA pool against mouse genes, 40 nM. Time to read-out: about 120 h (48 h before drug, then 72 h with drug). Challenge: doxorubicin 100 nM for 72 h, roughly 30-40% inhibitory dose. Detection: 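Viability read as ATP luminescence after 72 h of 100 nM doxorubicin or none, duplicate wells averaged, scaled to non-targeting siRNA, then expressed as robust z-scores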. Scale: viability z-score with doxorubicin and doxorubicin viability vs non-targeting: higher = more viable cells under doxorubicin; viability z-score without drug: higher = more viable cells with knock-down alone; z-score of drug to no-drug ratio: higher = less drug sensitisation by knock-down. Call rule: 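a pool counts as active when its viability z-score with doxorubicin is -2 or below and its z-score without drug lies between -2 and 2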.
The deposit covers about 17,000 reagents; below is an unselected part. 788 of all reagents (4.7%) were called active. 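Calls rest on z-score classes alone; an extra cut-off of viability at most 70% of control was not applied to them.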

Gene | combined z-score class | viability z-score with doxorubicin | viability z-score without drug | z-score of drug to no-drug ratio | doxorubicin viability vs non-targeting | outcome
Paip2 | no change with or without drug | -1.01 | -0.51 | -0.67 | 0.85 | inactive
1810065E05Rik | no change with or without drug | -1.24 | 0.17 | -1.35 | 0.83 | inactive
Klhl38 | no change with or without drug | 0.45 | 0.51 | 0.22 | 0.98 | inactive
Prl8a6 | no change with or without drug | 0.67 | 0.67 | 0.34 | 1 | inactive
Ptp4a3 | no change with or without drug | 1.69 | 0.51 | 1.46 | 1.09 | inactive
Sh3bp2 | no change with or without drug | -1.12 | -1.18 | -0.34 | 0.84 | inactive
Ube2j1 | no change with or without drug | 1.35 | 0.84 | 0.9 | 1.06 | inactive
Clstn1 | no change with or without drug | -1.12 | -0.84 | -0.56 | 0.84 | inactive
Plekha2 | low cell count with doxorubicin only | -3.15 | -1.18 | -2.59 | 0.66 | active
Cadps | no change with or without drug | 1.35 | 1.18 | 0.67 | 1.06 | inactive
Drd3 | no change with or without drug | 0.34 | 1.01 | -0.22 | 0.97 | inactive
Selenov | low cell count without drug only | -0.22 | -2.19 | 1.57 | 0.92 | inactive
Ctsm | no change with or without drug | 1.57 | -0.34 | 2.02 | 1.08 | inactive
Acot10 | no change with or without drug | 0 | 0.17 | 0 | 0.94 | inactive
Abcb1a | no change with or without drug | -1.01 | 0.51 | -1.24 | 0.85 | inactive
Tmem252 | high cell count without drug only | 0.67 | 2.53 | -0.79 | 1 | inactive
Pcdhb19 | no change with or without drug | 0.56 | -0.34 | 0.9 | 0.99 | inactive
Fads6 | no change with or without drug | 0 | 0.84 | -0.45 | 0.94 | inactive
Hesx1 | no change with or without drug | 0.56 | 1.18 | -0.11 | 0.99 | inactive
Boc | no change with or without drug | -0.11 | 0 | 0 | 0.93 | inactive

Part of the list above in another layout:
Gene	combined z-score class	viability z-score with doxorubicin	viability z-score without drug	z-score of drug to no-drug ratio	doxorubicin viability vs non-targeting	outcome
Sh3bp2	no change with or without drug	-1.12	-1.18	-0.34	0.84	inactive
Ube2j1	no change with or without drug	1.35	0.84	0.9	1.06	inactive
Clstn1	no change with or without drug	-1.12	-0.84	-0.56	0.84	inactive
